# Assay results published in PubChem BioAssay AID1508600 (Functional Genomics Laboratory (NCATS/FGL), 2020).
# Among all 53,000 sequences or so, about 3,700 (7%) were called active.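 The calls were made as follows: active = gene knockdowns whose robust z-score for IL-1 alpha signal is at least 2 or at most -2, so actives lie on both sides; inactive = the rest.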 The list shows a part of the results.
# Assay: Components of the Cytosolic LPS Sensing Pathway: Gene Identification via Genome-wide siRNA Screen;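 also: robust z of the log signal after scaling to non-targeting control siRNA wells of the plate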
# Conditions: RAW264.7 macrophages, IL-1a HTRF, actives lie on both sides, screened at 100 nM (by protocol), cells primed 5 h with Pam3CSK4 first
# Outline: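 Mouse macrophage line RAW264.7 is transfected with siRNA (100 nM final), grown 48h, primed with TLR ligand Pam3CSK4 5 h and given intracellular LipidA 24 h. IL-1a in supernatant is read by HTRF and viability by luminescence.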
row,Sequence,z-score
1,GGAAGACAAUGAACUUGUUTT against Loxhd1,inactive: 0.694
2,GGUACUCUCAUUAUCUUUCTT against Tlr8,inactive: -0.217
3,GGUCCAAAACUGUUCUUCUTT against Ackr1,inactive: 0.114
4,GGUUCCUUCGUGAAUGUCATT against Glp1r,inactive: 0.0826
5,GGGUGAUAGCAAGACACAGTT against Olfr720,inactive: 1.06
6,GGCAAGAGAAUUGUAUACATT against Pck2,inactive: -0.425
7,GCCUGGAUACAAUUACCCUTT against Tc2n,inactive: -0.893
8,GCUACCUUGAAUUUUCCGATT against Fxr2,inactive: 0.664
9,GGAGCUAUGCAUCAUUAAUTT against Srp14,inactive: 0.407
10,CGCGUACGACUUCUACAAATT against Hmgcs2,inactive: 0.775
11,GGCGACAUAUUUUUCAAACTT against Fmn1,inactive: -0.506
12,CCUAUGUAACACAAACAUUTT against Orc5,inactive: 0.721
13,GCAUUCAUUGAUCAAUUCUTT against Zbtb6,active: 2
14,GCUCAAUGCUACUAUAGACTT against Lif,inactive: -0.384
15,GCGUGUCACGUUCCCAUCUTT against Ppp1r37,inactive: 0.428
16,GCCGUAGUAGACAAUCAUGTT against Ankrd28,inactive: -0.123
17,GCUCGUGGUGUCCUUGUUUTT against Atg101,inactive: -1.02
18,GGCUCAGGACUUUGUCUACTT against Lhx4,inactive: -1.19
19,CCAUUCUAGCUGGUUCGAATT against Ifi27,inactive: 1.08
20,CGAAUGCACAUCGUUACUGTT against Fbln2,inactive: 1.1
21,GGAGACCUUUUUGAACCUGTT against Zfp472,inactive: -1.47
22,GGGUAACAACCAUGUCCGUTT against Pspn,inactive: 1.26

row,Sequence,z-score
1,GGAGAUGACCAAGUGGAAUTT against Pitpnm1,inactive: 0.722
2,GGUGAAGCUUGAGAUACUATT against Gcnt1,inactive: -0.164
3,CCGGAGGUUCCAACAAACUTT against Dlx1,inactive: -0.591
4,GGGUGUCGAUUAUAACAGATT against Hnf4a,inactive: 0.238
5,CCUAUCAAACUGACUUCAUTT against Castor2,inactive: 0.309
6,GUAGUGAAAGCUUUUGGGUTT against Vmn1r226,inactive: -0.881
7,GGAUUAGCUGCAUGAAAGATT against Samt4,inactive: -1.25
8,CCAAGACCCUAAUAUCUAUTT against Ccdc47,inactive: -0.216
9,GGACUACGGUGAUGAUGGATT against Dpt,inactive: -1.36
10,GGCGGAAAUCAAAGGAGGATT against Dnmt1,inactive: 0.791
11,GCCUUACAACAAGCAACACTT against Esrp1,inactive: -0.385
12,GCAUCACGCUAUAACCAUUTT against Slc22a17,inactive: -0.244
13,GGACCCAGAGAAGAUCAAATT against Etfrf1,inactive: 0.514
14,GGGAAGUUCAUAUUGAUCCTT against Gsdma,inactive: 0.691
15,GGUGUGUGUAUGGUAGGACTT against Dpcd,inactive: -0.614
16,GCUCUGCCUUCAGAUGACGTT against Olfr173,inactive: -0.26
17,CGUUAACCACAGUGAGAGATT against Nectin4,inactive: -0.376
18,CGAGAGUUCUGUGACCAUGTT against Olfr1165-ps,inactive: 1.54
19,GGAUCAAGAAUUAAUGUCUTT against Nes,inactive: -0.349
20,GGAAUAAAUACAGGUUCUCTT against Chuk,inactive: 0.0987
21,GGGUACAAGAGUCUGUUCUTT against Fkrp,inactive: 0.64
22,GGAACGAGGAGUCAAUAGATT against Ecscr,inactive: -1.11

# Retrieved one by one from the list above:
row,Sequence,z-score
2,GGUGAAGCUUGAGAUACUATT against Gcnt1,inactive: -0.164
3,CCGGAGGUUCCAACAAACUTT against Dlx1,inactive: -0.591
8,CCAAGACCCUAAUAUCUAUTT against Ccdc47,inactive: -0.216
13,GGACCCAGAGAAGAUCAAATT against Etfrf1,inactive: 0.514
22,GGAACGAGGAGUCAAUAGATT against Ecscr,inactive: -1.11
16,GCUCUGCCUUCAGAUGACGTT against Olfr173,inactive: -0.26
14,GGGAAGUUCAUAUUGAUCCTT against Gsdma,inactive: 0.691

# Part of the list above, as tab-separated lines:
row	Sequence	z-score
20	GGAAUAAAUACAGGUUCUCTT against Chuk	inactive: 0.0987
21	GGGUACAAGAGUCUGUUCUTT against Fkrp	inactive: 0.64

# (list continues)

row,Sequence,z-score
1,GGUCUUCUCUCACCUUUUATT against Pstpip2,inactive: -1.47
2,GGUCACGAUUCUGUCAGACTT against Ctnnal1,active: 3.57
3,GCAACUUUGGCACUAUCCGTT against Rnf123,inactive: 0.788
4,GGAACUGGAAUUUAUGAUATT against Btla,inactive: -0.26
5,GCACCAGUGUUACCACAGUTT against Foxc1,inactive: -1.01
6,GGGUGUAAUAGUUACAAGATT against Zfp189,inactive: 0.0189
7,GGACUUCACCAUCCACGAATT against Pgap2,inactive: 0.622
8,CGAGCACUCAAUGUGUUGGTT against Abcb6,inactive: -1.03
9,GGAGAGUGGGAACCACUACTT against Prkaca,inactive: -1.15
10,GUCUUUGGCUCGGUUUGCGTT against Dmrta2,inactive: 1.04
11,GGGUUAGACAUCUUUCUGCTT against Olfr57,inactive: -0.27
12,GGAUGGUGACAUGAAAAUCTT against Ifng,inactive: 1.14
13,CCCUUACUAGAAAAAAGACTT against Nap1l2,inactive: -0.45
14,GGGAGUCCUGAGUUUCAAATT against Lypd4,inactive: 0.21
15,GCCCUUUUCAUUCUCCAGATT against Zdhhc25,active: 4.39
16,GGGCUUCUAACAAUACUUGTT against Frat2,inactive: 0.574
17,AAGGAAGACAGUCAUAGCUTT against Vmn1r172,inactive: 0.168
18,GGAGGAAAUAUGUUAACUATT against Atp6ap2,inactive: 1.22
19,GCAUUCUGUUCGAGCUCCATT against Tmem39b,inactive: 0.984
20,CCGUUUUUAAAGCGGGCCATT against Tmtc1,inactive: -0.266
21,GGAGGAGACUAUUUUCGCCTT against Mypop,inactive: -1.86
22,GGUUAUCUAUGGUCGGAAGTT against Jmjd8,inactive: 0.115

row,Sequence,z-score
1,GGAAGUCCAACUUCUUCCATT against Ebf4,inactive: -0.153
2,GCCUGACCACCAACUUAUATT against Mast1,inactive: -0.527
3,GUCAGAUGCUGUAAGAUAATT against Defb4,inactive: -0.223
4,CCUCAGUAUCUGUUUUCCGTT against Gnat2,inactive: 0.0243
5,GCCUUAACUGACAAAAUACTT against Il1bos,inactive: -1.31
6,GGUUUUACCCGGUAAGUCCTT against Bcan,inactive: -0.225
7,GGGCCUCCAUCCUACUAUGTT against Grina,inactive: 1.65
8,GGAUGCUACAGGAAGAGAATT against Ccdc51,inactive: 1.94
9,GGUAGACAUUCCUAAGCCCTT against Ddx21,inactive: 0.149
10,GGUCCUGGACAAGAGCAGUTT against Bcl11b,inactive: 0.435
11,GCCUGGUGUUGUGCUAUUUTT against Atf3,inactive: -0.854
12,GGAUGUGUAGUGCAAUUACTT against Olfr993,inactive: -0.906
13,GGAUGAUGAGAGAAACAAATT against Jak1,active: 3.78
14,GGAAUGUGAAGGAUGUUCUTT against Nhlh1,inactive: 0.0347
15,GGAAGUGUGACUUGAUUGCTT against Tango6,inactive: -0.0308
16,GGCAUUAAAGACCUGUUAATT against Kpnb1,inactive: -0.887
17,GGAAGAAGAAGUUAUUGUGTT against Ly6g2,inactive: 0.0348
18,GGUUGUAGAACAUGAGUUATT against Fktn,inactive: -0.309
19,GGACAGACUGUGAUUCCUCTT against Bscl2,inactive: -1.02
20,CCUCGUUCCUGAUAACCAUTT against 0610010K14Rik,inactive: -0.0752
21,GCUUUUACAAUUCAGGCAGTT against Naalad2,inactive: -0.326
22,GGAUCAUUUGUUAAUGUACTT against Ddx3y,inactive: 0.0896

row,Sequence,z-score
1,GGAGAUGUGUUGAGUUUUCTT against Abcg2,active: 4.47
2,GGAUGACUUCUGUCUUCUUTT against Slc25a45,inactive: -0.348
3,CGGGUCUCAGUCUUUCCUATT against Plekhs1,inactive: 0.26
4,GCACGUCUUAAAACAUUUATT against Actr6,inactive: 1.7
5,GUGUGGAUAGCUGUAAACGTT against Tcl1b5,inactive: -1.2
6,GGUAACUCUGCUGGGAUUCTT against Olfr444,inactive: 1.11
7,GCGAAUUCGAAAGCUAUGATT against Arhgef10,active: -2.19
8,CCCUAUCAUUACCAAGCUGTT against Hspa8,inactive: 0.045
9,GGACACUCUACGUAUCUCATT against Tnfrsf1b,inactive: -1.16
10,GGCUCACGCACUGACUAUUTT against Osgepl1,inactive: -0.074
11,GGGAUCCUAACAUCAGGGATT against Ly6c1,inactive: -1.19
12,GUUUUAGGCAACCUUGGGUTT against Olfr1038-ps,inactive: -0.14
13,CCUAUGGUGGUGAGAGGACTT against Fbxl18,inactive: -0.227
14,GCACUUAUUCUAGAGGAGATT against Appbp2,inactive: -0.291
15,GGACAAUGAACUGAUUACCTT against Ap1s2,inactive: 0.992
16,GGUUCCAUGUUCAGAAUUUTT against Alg9,active: 2.04
17,GGUGGCUUUAGGGAACAUUTT against Dctn3,inactive: 0.369
18,GGACUUCAACCUGCUGUAUTT against Kctd15,inactive: 1.53
19,GGUUUGGUAUCAUGUAUGUTT against Ddx1,inactive: 0.864
